Record: PubChem BioAssay AID1259308 (NCATS, 2017)

- Aim: 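Candidate targets for better recombinant protein yield in mammalian cells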 (primary screen)
- System: human HEK293 embryonic kidney cells stably expressing firefly luciferase (HEK-CMV-Luc2-Hygro)
- Reagent: single siRNA against human genes, 0.8 pmol siRNA per well
- Duration: 72 h
- Measurement: 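Reporter luminescence and viable-cell signal on separate replicate plates, given as percent of non-targeting control and median/MAD z-scores, plus per-cell luciferase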
- Reading the numbers: total luciferase, z-score: higher = more reporter protein produced
- Rule for the call: 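Active when the median/MAD z-score for overall luciferase is greater than 3; a gene was taken forward for validation with new siRNAs if at least two of its three siRNAs passed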
- Calls: active = raised luciferase; inactive = no rise
This is an unselected part of about 59,000 reagents. Over the whole deposit, about 1,510 (2.6%) got an active call. 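Calls use total luciferase alone and ignore viability, so some active siRNAs may act by altering cell number.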 Entries without a mark were called inactive. Reagents against one gene are numbered here. Not all columns of the deposit are shown. Reagent sequences are not shown.

Gene | reagent | total luciferase, z-score
TATDN1 (TatD DNase domain containing 1) | 1 | 0.893
TATDN1 (TatD DNase domain containing 1) | 2 | 1.43
TATDN1 (TatD DNase domain containing 1) | 3 | 0.683
SSMEM1 (serine rich single-pass membrane protein 1) | 1 | -0.108
SSMEM1 (serine rich single-pass membrane protein 1) | 2 | -2.56
SSMEM1 (serine rich single-pass membrane protein 1) | 3 | 0.351
CASR (calcium sensing receptor) | 1 | 0.576
CASR (calcium sensing receptor) | 2 | 1.35
CASR (calcium sensing receptor) | 3 | 0.00531
NT5C3A (5'-nucleotidase, cytosolic IIIA) | 1 | 0.348
NT5C3A (5'-nucleotidase, cytosolic IIIA) | 2 | -0.22
NT5C3A (5'-nucleotidase, cytosolic IIIA) | 3 | 0.49
TRAF3 (TNF receptor associated factor 3) | 1 | 0.727
TRAF3 (TNF receptor associated factor 3) | 2 | 4.07 (active)
TRAF3 (TNF receptor associated factor 3) | 3 | 1.73
PRR7 (proline rich 7, synaptic) | 1 | -0.11
PRR7 (proline rich 7, synaptic) | 2 | 0.736
PRR7 (proline rich 7, synaptic) | 3 | 0.11
EDEM3 (ER degradation enhancing alpha-mannosidase like protein 3) | 1 | -0.594
EDEM3 (ER degradation enhancing alpha-mannosidase like protein 3) | 2 | 1.4
EDEM3 (ER degradation enhancing alpha-mannosidase like protein 3) | 3 | -1.37
MARCHF1 (membrane associated ring-CH-type finger 1) | 1 | -0.0727
MARCHF1 (membrane associated ring-CH-type finger 1) | 2 | 0.708
MARCHF1 (membrane associated ring-CH-type finger 1) | 3 | -0.687

In a second layout: results already given
{"Gene":"SSMEM1 (serine rich single-pass membrane protein 1)","reagent":1,"total luciferase, z-score":-0.108}
{"Gene":"SSMEM1 (serine rich single-pass membrane protein 1)","reagent":2,"total luciferase, z-score":-2.56}
{"Gene":"SSMEM1 (serine rich single-pass membrane protein 1)","reagent":3,"total luciferase, z-score":0.351}
